# Over roughly 33,000 sequences, “E-score (-0.5 to 0.5)” has its median near -0.015; the highest 2% begin near 0.3. The list shows a part of the results.
# Biological target: T1, Abf1 (UniProt P14164)
# T1 sequence: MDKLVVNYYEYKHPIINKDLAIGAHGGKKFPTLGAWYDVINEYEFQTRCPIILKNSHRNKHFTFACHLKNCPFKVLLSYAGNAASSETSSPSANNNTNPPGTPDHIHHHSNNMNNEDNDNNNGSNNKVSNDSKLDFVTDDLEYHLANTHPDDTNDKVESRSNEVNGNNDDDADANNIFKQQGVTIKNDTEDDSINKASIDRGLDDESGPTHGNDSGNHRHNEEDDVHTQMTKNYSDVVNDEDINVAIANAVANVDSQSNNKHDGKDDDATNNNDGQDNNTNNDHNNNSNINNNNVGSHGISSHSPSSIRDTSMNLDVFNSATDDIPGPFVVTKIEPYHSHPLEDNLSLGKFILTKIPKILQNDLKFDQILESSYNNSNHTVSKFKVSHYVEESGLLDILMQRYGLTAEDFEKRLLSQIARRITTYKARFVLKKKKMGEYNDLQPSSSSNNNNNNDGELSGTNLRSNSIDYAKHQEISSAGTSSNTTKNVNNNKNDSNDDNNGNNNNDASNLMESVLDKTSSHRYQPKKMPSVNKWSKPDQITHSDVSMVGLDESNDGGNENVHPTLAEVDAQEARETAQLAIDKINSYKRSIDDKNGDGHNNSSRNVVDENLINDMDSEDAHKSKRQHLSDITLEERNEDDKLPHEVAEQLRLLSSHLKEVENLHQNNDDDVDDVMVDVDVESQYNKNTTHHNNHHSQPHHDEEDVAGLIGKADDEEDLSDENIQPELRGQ
# Assay: PBM E-score (8-mer binding enrichment) (E-score (-0.5 to 0.5)); higher = stronger / more preferred TF binding
# Settings: protein concentration: 200 nM; construct: GST-full length
# Procedure, shortened: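 Detection of bound protein used fluorescent anti-GST, with scans normalised by masliner. The proteins were GST-tagged yeast transcription factors applied at about 100-200 nM to universal all-10-mer Agilent arrays made double-stranded by primer extension. Each ungapped eight-base word, pooled with its reverse complement, was scored with an E-score from the Universal PBM Analysis Suite.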
row,Sequence,PBM E-score
1,GGCGGAAA,-0.0962
2,CCTAGGTA,-0.142
3,AGGCTCAG,-0.243
4,CGGGAAAC,0.118
5,ATACCCCC,-0.192
6,GAGAACCA,-0.0248
7,CCCCCACC,-0.401
8,ATACTCTC,0.1
9,CACGGGAA,-0.00566
10,ACCATGGT,-0.133
11,CGGTCGTC,0.113
12,CCCCTTTA,-0.242
13,ACTCTGAG,-0.169
14,CCCAGACG,-0.1
15,CCGTAACC,0.0441
16,ATTGCAGA,0.0469
17,ATCTCTTG,-0.13
18,CTCCCATA,-0.144
19,GCTACGCC,-0.0953
20,GAGGGAAA,-0.0973
21,AGGGCACT,-0.0944
22,CCTCATGC,-0.328
23,ACAGCCAC,-0.109
24,CACCCTGG,-0.33
25,ACTTCATG,-0.026

# Some of the entries so far, with bars between the fields:
row | Sequence | PBM E-score
2 | CCTAGGTA | -0.142
3 | AGGCTCAG | -0.243

# Reprinted from above for reference:
row,Sequence,PBM E-score
2,CCTAGGTA,-0.142
3,AGGCTCAG,-0.243
4,CGGGAAAC,0.118
5,ATACCCCC,-0.192
6,GAGAACCA,-0.0248
7,CCCCCACC,-0.401

# Following part

row,Sequence,PBM E-score
1,CACCCGTA,0.217
2,ATCGTCCG,0.186
3,AAATTCAT,-0.0345
4,ACGCGCCG,0.0196
5,AATCCATG,-0.097
6,AACAGTTA,0.0138
7,CCGCGAAC,0.00614
8,AGAGGAGC,-0.143
9,ACACCCGC,0.0446
10,AAGTATTA,0.0983
11,GACCAAAC,0.0619
12,TAGTCCGA,-0.0678
13,GCTCAGCA,0.0463
14,CTTACACC,-0.236
15,AGCCCTAT,-0.105
16,AAAAACAT,0.00908
17,CTTGGACA,-0.0157
18,ACCCCTAC,-0.271
19,AATAGGTG,-0.0129
20,TGAACCCA,-0.00982
21,CAGTCGCC,-0.148
22,AGTTTTTA,0.12
23,AGGAAGCA,-0.354
24,AGATTCAT,-0.0293
25,CGTAGAAA,0.318

row,Sequence,PBM E-score
1,GAAACTTA,0.115
2,AGCCGGAT,-0.208
3,CACAACAA,-0.0597
4,AATCTGGT,-0.106
5,CGTACTAC,0.274
6,AAACTTTA,0.0717
7,CAAGTGGA,-0.104
8,CCTGAGGA,-0.115
9,AGTCAGGG,-0.168
10,AGCCTTGC,0.047
11,ACTATGTC,0.113
12,ATAGGCTG,-0.0438
13,GCTTCGAC,-0.0334
14,ACGTAGGG,-0.148
15,AGATGGAA,-0.171
16,AATTTAGT,0.0496
17,TGCGGCCA,-0.218
18,GTGGTTGA,-0.0109
19,GAGGATCA,-0.0196
20,CGAGCAGC,-0.0523
21,CCAAATGG,-0.17
22,CGGTTCGC,0.0344
23,AAGGCGTA,-0.158
24,GCTAACTA,0.127
25,AACGGCGT,0.227

row,Sequence,PBM E-score
1,CGACTTAG,-0.0433
2,AGTACGAG,0.00494
3,ACTAACAT,0.137
4,ACCAAACG,-0.129
5,CTACTGTC,-0.00861
6,ACTCCAGT,-0.101
7,GAGTTTAC,-0.131
8,GCCCTAAA,-0.113
9,ACTCTTCG,-0.131
10,GCCCCTTA,-0.138
11,ATATTACC,0.122
12,TGCGCACA,-0.0767
13,AATTATCG,0.178
14,TACTAGTA,0.0479
15,GAGGTCCC,-0.0234
16,ACATAGGA,-0.146
17,GCTCTCGA,-0.166
18,CAGCCGCC,-0.193
19,ACTAGAGC,0.0446
20,AATATAGC,-0.0394
21,AGAAGAAA,0.0739
22,GCTAGCAA,-0.0152
23,CGCGGGGC,-0.226
24,AATCGGGG,-0.185
25,GAGTTCGA,0.117

row,Sequence,PBM E-score
1,AGTTTGTA,0.0486
2,GAGACCAC,-0.0726
3,CGATCGGA,-0.164
4,CCGACTCA,-0.211
5,CAAGAGTA,0.0333
6,ATTTGAAG,-0.0409
7,GACCTACC,-0.222
8,ATACCAGC,-0.0695
9,AGGTTGAT,-0.174
10,CGTATTCA,0.165
11,ATATCGAC,0.192
12,CGATTACG,0.0723
13,AGCAGATG,-0.0843
14,CCATTTCA,-0.056
15,CGCGACTC,-0.0343
16,TATAGAGA,-0.0405
17,CGTGACAC,0.252
18,AAAGCGGG,-0.107
19,GCAACGAC,0.0784
20,CTCATGTA,-0.0922
21,AATCGAAA,0.126
22,AGGACCCC,-0.0335
23,CGGGCCCA,-0.111
24,CCGATTCA,-0.15
25,CAACGACC,0.0123

row,Sequence,PBM E-score
1,GTGGGAAA,0.0642
2,ATTAGACC,-0.183
3,CCGCAAAA,-0.147
4,CTCACCCA,-0.0983
5,CCGGGTAC,-0.0694
6,AACAACTT,0.0669
7,GCCACGGA,0.0521
8,CTCCCATC,-0.171
9,CAGAGACA,-0.226
10,ACACCTCT,-0.134
11,ATTAGTAG,0.0439
12,GACTATCC,0.089
13,TTATGAAA,0.0001
14,AGCTCGTC,0.159
15,GCTGCAAA,0.0471
16,GAATTAGA,0.0737
17,ACACTTTG,0.199
18,ACAACTTC,0.00296
19,CGGCCTCA,0.11
20,TAGCGAGA,0.0414
21,CCGATGCC,-0.218
22,ATTTGCGG,-0.182
23,CACTCCGG,0.0589
24,CAATCCTG,-0.0511
25,CGCCGGAC,-0.0875

row,Sequence,PBM E-score
1,ATGGCTGA,-0.123
2,AATCGAAG,0.14
3,AGACCCGA,-0.19
4,CCGCGTCA,-0.283
5,AGCCTAGC,-0.159
6,AACCCTCT,-0.161
7,TAGCACGA,0.158
8,ACCTCTTG,-0.183
9,TGCTACCA,-0.0801
10,CTACACTC,-0.0175
11,AACCCGAA,0.0202
12,CGGGTGGC,-0.0962
13,AGGCTTTG,-0.262
14,CCGTGACA,0.363
15,AGGTCATG,0.159
16,GTATCTGA,0.0476
17,GATCTGTA,-0.124
18,TTAGTCAA,-0.0955
19,ATGCTCGG,-0.0743
20,AGGTCAGA,-0.217
21,AAGTGGAT,-0.167
22,AAACGTCT,0.123

# — the supplement of paper PMC3334620
